Experimental data published in the supplement of paper PMC4604168 (melanoma cell lines).
The other results are listed elsewhere or left out. Single values are uncertain, as repeats are few or missing.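 Cells were imaged in 1,536-well plates, and nuclei stained with an antibody against cleaved PARP were counted against all DNA-stained nuclei to give the apoptosis fraction. Screening doses were chosen to leave most cells alive, and resting and induced cleaved-PARP levels differ strongly between cell lines.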

Key:
Test in all cases: cleaved PARP positive nuclei fraction relative to DMSO control; melanoma cells; higher = more apoptosis
Details in all cases: library dose: low library concentration; 72 h
501Mel = test system: 501Mel
A101D = test system: A101D
A2058 = test system: A2058
A375 = test system: A375
C32 = test system: C32
CBRC013 = test system: CBRC013 (line from a melanoma biopsy)
CBRC014 = test system: CBRC014 (line from a melanoma biopsy)
CBRC016 = test system: CBRC016 (line from a melanoma biopsy)
CBRC017 = test system: CBRC017 (line from a melanoma biopsy)
CBRC034 = test system: CBRC034 (line from a melanoma biopsy)
COLO792 = test system: COLO792
COLO800 = test system: COLO800
COLO829 = test system: COLO829
G361 = test system: G361
IPC-298 = test system: IPC-298
IST-MEL1 = test system: IST-MEL1
LB2518-MEL = test system: LB2518-MEL
LOXIMVI = test system: LOXIMVI

CN(C)S(=O)(=O)c1ccc2c(c1)/C(=C/c1cc3c([nH]1)CCCC3)C(=O)N2 + COC(=O)c1sccc1S(=O)(=O)Nc1ccc(Nc2ccccc2)cc1OC [GSK0660] (first compound 0.4 µM, partner dose 1 µM)
cleaved PARP positive nuclei fraction (501Mel): 166% | cleaved PARP positive nuclei fraction (A101D): 131% | cleaved PARP positive nuclei fraction (A2058): 91.6% | cleaved PARP positive nuclei fraction (A375): 185% | cleaved PARP positive nuclei fraction (C32): 63.5% | cleaved PARP positive nuclei fraction (CBRC013): 24.7% | cleaved PARP positive nuclei fraction (CBRC014): 104% | cleaved PARP positive nuclei fraction (CBRC016): 133% | cleaved PARP positive nuclei fraction (CBRC017): 100% | cleaved PARP positive nuclei fraction (CBRC034): 97.5% | cleaved PARP positive nuclei fraction (COLO792): 124% | cleaved PARP positive nuclei fraction (COLO800): 69.3% | cleaved PARP positive nuclei fraction (COLO829): 111% | cleaved PARP positive nuclei fraction (G361): 100% | cleaved PARP positive nuclei fraction (IPC-298): 109% | cleaved PARP positive nuclei fraction (IST-MEL1): 91.9% | cleaved PARP positive nuclei fraction (LB2518-MEL): 78.5% | cleaved PARP positive nuclei fraction (LOXIMVI): 29.2%

O=C(O)C(=O)Nc1sc2c(c1C(=O)O)CCNC2 + Oc1nc(-c2ccc(C(F)(F)F)cc2)nc2c1CSCC2 [XAV939] (first compound 1.66667 µM, partner dose 2 µM)
cleaved PARP positive nuclei fraction (501Mel): 140% | cleaved PARP positive nuclei fraction (A101D): 39.1% | cleaved PARP positive nuclei fraction (A2058): 170% | cleaved PARP positive nuclei fraction (A375): 149% | cleaved PARP positive nuclei fraction (C32): 226% | cleaved PARP positive nuclei fraction (CBRC013): 34.2% | cleaved PARP positive nuclei fraction (CBRC014): 76.4% | cleaved PARP positive nuclei fraction (CBRC016): 59.5% | cleaved PARP positive nuclei fraction (CBRC017): 66.4% | cleaved PARP positive nuclei fraction (CBRC034): 26.1% | cleaved PARP positive nuclei fraction (COLO792): 121% | cleaved PARP positive nuclei fraction (COLO800): 73.9% | cleaved PARP positive nuclei fraction (COLO829): 80.6% | cleaved PARP positive nuclei fraction (G361): 75.1% | cleaved PARP positive nuclei fraction (IPC-298): 89% | cleaved PARP positive nuclei fraction (IST-MEL1): 66.1% | cleaved PARP positive nuclei fraction (LB2518-MEL): 88.4% | cleaved PARP positive nuclei fraction (LOXIMVI): 44.1%

Oc1nc(-c2ccc(C(F)(F)F)cc2)nc2c1CSCC2 + c1cc(-c2cnn3cc(-c4ccc(OCCN5CCCCC5)cc4)cnc23)ccn1 [Dorsomorphin] (first compound 2 µM, partner dose 0.4 µM)
cleaved PARP positive nuclei fraction (501Mel): 78.9% | cleaved PARP positive nuclei fraction (A101D): 238% | cleaved PARP positive nuclei fraction (A2058): 64.1% | cleaved PARP positive nuclei fraction (A375): 178% | cleaved PARP positive nuclei fraction (C32): 141% | cleaved PARP positive nuclei fraction (CBRC013): 112% | cleaved PARP positive nuclei fraction (CBRC014): 89.1% | cleaved PARP positive nuclei fraction (CBRC016): 42% | cleaved PARP positive nuclei fraction (CBRC017): 87.6% | cleaved PARP positive nuclei fraction (CBRC034): 82.7% | cleaved PARP positive nuclei fraction (COLO792): 102% | cleaved PARP positive nuclei fraction (COLO800): 78.2% | cleaved PARP positive nuclei fraction (COLO829): 65.4% | cleaved PARP positive nuclei fraction (G361): 68.3% | cleaved PARP positive nuclei fraction (IPC-298): 42.7% | cleaved PARP positive nuclei fraction (IST-MEL1): 137% | cleaved PARP positive nuclei fraction (LB2518-MEL): 94.3% | cleaved PARP positive nuclei fraction (LOXIMVI): 49.9%

CCN(CC)CCCCNc1ncc2cc(-c3cc(OC)cc(OC)c3)c(NC(=O)NC(C)(C)C)nc2n1 + O=C1NC(=O)/C(=C/c2ccc(-c3ccc(F)cc3O)o2)S1 [AS252424] (first compound 0.1 µM, partner dose 1 µM)
cleaved PARP positive nuclei fraction (501Mel): 108% | cleaved PARP positive nuclei fraction (A101D): 95.3% | cleaved PARP positive nuclei fraction (A2058): 70.3% | cleaved PARP positive nuclei fraction (A375): 163% | cleaved PARP positive nuclei fraction (C32): 172% | cleaved PARP positive nuclei fraction (CBRC013): 60.7% | cleaved PARP positive nuclei fraction (CBRC014): 210% | cleaved PARP positive nuclei fraction (CBRC016): 90.8% | cleaved PARP positive nuclei fraction (CBRC017): 82.9% | cleaved PARP positive nuclei fraction (CBRC034): 43.9% | cleaved PARP positive nuclei fraction (COLO792): 72.8% | cleaved PARP positive nuclei fraction (COLO800): 168% | cleaved PARP positive nuclei fraction (COLO829): 62.5% | cleaved PARP positive nuclei fraction (G361): 17.1% | cleaved PARP positive nuclei fraction (IPC-298): 110% | cleaved PARP positive nuclei fraction (IST-MEL1): 270% | cleaved PARP positive nuclei fraction (LB2518-MEL): 177% | cleaved PARP positive nuclei fraction (LOXIMVI): 28.7%

COc1cc2ncnc(Nc3ccc(Oc4ccccc4)cc3)c2cc1OC + Cc1cc([N+](=O)[O-])ccc1NS(=O)(=O)c1cc(Cl)ccc1Cl [FH535] (first compound 2 µM, partner dose 1 µM)
cleaved PARP positive nuclei fraction (501Mel): 48.8% | cleaved PARP positive nuclei fraction (A101D): 240% | cleaved PARP positive nuclei fraction (A2058): 116% | cleaved PARP positive nuclei fraction (A375): 69.1% | cleaved PARP positive nuclei fraction (C32): 142% | cleaved PARP positive nuclei fraction (CBRC013): 330% | cleaved PARP positive nuclei fraction (CBRC014): 132% | cleaved PARP positive nuclei fraction (CBRC016): 1680% | cleaved PARP positive nuclei fraction (CBRC017): 393% | cleaved PARP positive nuclei fraction (CBRC034): 418% | cleaved PARP positive nuclei fraction (COLO792): 192% | cleaved PARP positive nuclei fraction (COLO800): 96.2% | cleaved PARP positive nuclei fraction (COLO829): 34.6% | cleaved PARP positive nuclei fraction (G361): 73.6% | cleaved PARP positive nuclei fraction (IPC-298): 202% | cleaved PARP positive nuclei fraction (IST-MEL1): 160% | cleaved PARP positive nuclei fraction (LB2518-MEL): 143% | cleaved PARP positive nuclei fraction (LOXIMVI): 62.5%

O=C(O)C(=O)Nc1sc2c(c1C(=O)O)CCNC2 + COc1cc(N2CCC(N3CCN(C)CC3)CC2)ccc1Nc1ncc(Cl)c(Nc2ccccc2S(=O)(=O)C(C)C)n1 [NVP-TAE684] (first compound 1.66667 µM, partner dose 0.08 µM)
cleaved PARP positive nuclei fraction (A101D): 60.8% | cleaved PARP positive nuclei fraction (A2058): 23.9% | cleaved PARP positive nuclei fraction (A375): 91.5% | cleaved PARP positive nuclei fraction (C32): 75.8% | cleaved PARP positive nuclei fraction (CBRC013): 1040% | cleaved PARP positive nuclei fraction (CBRC014): 82.3% | cleaved PARP positive nuclei fraction (CBRC016): 155% | cleaved PARP positive nuclei fraction (CBRC017): 145% | cleaved PARP positive nuclei fraction (CBRC034): 235% | cleaved PARP positive nuclei fraction (COLO792): 84.7% | cleaved PARP positive nuclei fraction (COLO800): 120% | cleaved PARP positive nuclei fraction (COLO829): 80.3% | cleaved PARP positive nuclei fraction (G361): 36% | cleaved PARP positive nuclei fraction (IPC-298): 87.5% | cleaved PARP positive nuclei fraction (IST-MEL1): 265% | cleaved PARP positive nuclei fraction (LOXIMVI): 106%

CN(NC(=O)CC(=O)NN(C)C(=S)c1ccccc1)C(=S)c1ccccc1 + N#Cc1c(O)c2c(-c3ccc(-c4ccccc4O)cc3)csc2[nH]c1=O [A769662] (first compound 0.006 µM, partner dose 2 µM)
cleaved PARP positive nuclei fraction (A101D): 290% | cleaved PARP positive nuclei fraction (A2058): 199% | cleaved PARP positive nuclei fraction (A375): 1840% | cleaved PARP positive nuclei fraction (C32): 132% | cleaved PARP positive nuclei fraction (CBRC013): 209% | cleaved PARP positive nuclei fraction (CBRC014): 398% | cleaved PARP positive nuclei fraction (CBRC016): 354% | cleaved PARP positive nuclei fraction (CBRC017): 140% | cleaved PARP positive nuclei fraction (CBRC034): 242% | cleaved PARP positive nuclei fraction (COLO792): 96.1% | cleaved PARP positive nuclei fraction (COLO800): 145% | cleaved PARP positive nuclei fraction (COLO829): 194% | cleaved PARP positive nuclei fraction (G361): 279% | cleaved PARP positive nuclei fraction (IPC-298): 85.6% | cleaved PARP positive nuclei fraction (IST-MEL1): 68.2% | cleaved PARP positive nuclei fraction (LOXIMVI): 619%
